{"sequences": {"note": "The chains behind the UniProt entries cited, without tags or fusion partners. Where a name states a change or a piece, a line headed by the entry shows the natural chain unless it says otherwise.", "UniProt C7C422": "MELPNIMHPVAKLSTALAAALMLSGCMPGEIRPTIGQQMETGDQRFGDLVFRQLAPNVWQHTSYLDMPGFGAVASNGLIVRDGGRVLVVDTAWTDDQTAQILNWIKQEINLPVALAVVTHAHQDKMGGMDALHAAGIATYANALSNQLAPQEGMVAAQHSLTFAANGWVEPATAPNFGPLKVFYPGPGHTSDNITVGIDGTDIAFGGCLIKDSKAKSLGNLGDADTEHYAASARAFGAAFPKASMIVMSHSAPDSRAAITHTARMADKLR"}, "source": "PubChem BioAssay AID1794844", "about": "(National Center for Advancing Translational Sciences (NCATS), 2023)", "note": "The campaign covered roughly 2,800 compounds. Fewer than 10 were called active. Roughly 7% stayed inconclusive and do not appear here. Calls come from the whole dose curve; as a rule, active = well fitted inhibition curve with a large enough effect; inconclusive = small, poorly fitted or top-dose-only effect; inactive = no such curve, though single readings can be large or run the other way. This is one part of the list."}
{"molecular_target": "Metallo-beta-lactamase type 2 (Klebsiella pneumoniae) (UniProt C7C422)", "assay": "qHTS to identify inhibitors of the New Delhi Metallo-beta-lactamase (NDM): Nitrocefin screen against the machine-based learning selections; note: % of control where 0% means no effect.", "details": "NDM-1 enzyme, nitrocefin hydrolysis, absorbance 485 nm; activity, negative = inhibition: at the top concentration", "method_in_brief": "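Hydrolysis by 2 nM NDM-1 was followed by absorbance after >30 min compound preincubation in HEPES pH 7.0 buffer with 1 uM Zn2SO4. For nitrocefin (16.7 uM, 15 min, 485 nm) and meropenem (50 uM, 30 min, 300 nm), each substrate ran on separate plates.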"}
{"molecule": "Cc1ccc2cccc(OCCNC(=O)C3NCCc4[nH]cnc43)c2n1", "note": "(centres undefined)", "activity, negative = inhibition": "inactive: -7.14%"}
{"molecule": "OC1CCC(NCc2ccc(-c3cnc4c(OCc5ccccc5)nccn34)cc2)CC1", "note": "(centres undefined)", "activity, negative = inhibition": "inactive: -3.4% [at 57.5 µM]"}
{"molecule": "O=C(O)CCn1ncc2cc(OCc3ccc(-c4cccc(CO)c4)cc3)ccc21", "activity, negative = inhibition": "inactive: 28.6% [at 57.5 µM]"}
{"molecule": "CC(C)CNC1(Cc2cc(CN(C)Cc3ccccc3)on2)COC1", "activity, negative = inhibition": "inactive: -3.11% [at 57.5 µM]"}
{"molecule": "C#CCN(C)Cc1nc(C2(O)CCN(C(C)=O)CC2)cs1", "activity, negative = inhibition": "inactive: -2.39% [at 57.5 µM]"}
{"molecule": "Cc1cc(C)c(CNC(=O)c2nc(-c3cccc(N4CCOCC4)c3)cc3[nH]ccc23)c(=O)[nH]1", "activity, negative = inhibition": "inactive: 1.13%"}
{"molecule": "C=CCNC(=O)N[C@H]1C[C@H]2C(=O)Nc3ccc(-c4cccs4)cc3C(=O)N2C1", "activity, negative = inhibition": "inactive: -3.78% [at 57.5 µM]"}
{"molecule": "Cc1nn(-c2ccc(C(F)(F)F)cc2)c(C)c1[C@@H]1C=C[C@@H](NC(=O)C2CCCCC2)C1", "activity, negative = inhibition": "inactive: 0.821% [at 57.5 µM]"}
{"molecule": "CCN(CC)Cc1nc(C2(O)CCN(C(=O)COc3ccccc3)CC2)cs1", "activity, negative = inhibition": "inactive: -16.4% [at 57.5 µM]"}
{"molecule": "Cc1nc([C@@H]2CN(C3CCN(CCc4ccccc4)CC3)C[C@H]2C(N)=O)n[nH]1", "activity, negative = inhibition": "inactive: -2%"}
{"molecule": "COc1ccc(OC)c(CN2CCC3(CC2)Nc2ccccc2NC3=O)c1", "activity, negative = inhibition": "inactive: -1.47%"}
{"molecule": "COCCNC(=O)c1ccc2c(c1)N(C)C(CC(=O)N1CCC(C)CC1)CO2", "note": "(centres undefined)", "activity, negative = inhibition": "inactive: 0.0011%"}
{"molecule": "O=C(C1CCCC1)N1CC2CC(C1)[C@H]1CCCC(=O)N1C2", "note": "(some centres undefined)", "activity, negative = inhibition": "inactive: -0.336%"}
{"molecule": "Cn1ccc2c(C(=O)NCCC(N)=O)nc(-c3cccc(CO)c3)cc21", "activity, negative = inhibition": "inactive: 7.56% [at 57.5 µM]"}
{"molecule": "COc1ccc(CN2CCOC[C@H]2c2ncc(-c3cccnc3)[nH]2)cc1", "activity, negative = inhibition": "inactive: 0.499% [at 57.5 µM]"}
{"molecule": "CC1(C)[C@H](Cc2cc(CN3CCN(c4ccccc4)CC3)on2)C[C@@H]1NC(=O)Nc1ccc(F)cc1", "activity, negative = inhibition": "inactive: -2.47%"}
{"molecule": "COc1ccc(-c2nnc3n2CCN(C(=O)c2ccc(C(F)(F)F)cc2)C3)cc1", "activity, negative = inhibition": "inactive: 4.63%"}
{"molecule": "O=C(c1cccc2[nH]ccc12)N1CCC([C@@H]2CNC[C@H]2CO)CC1", "activity, negative = inhibition": "inactive: 0.894%"}
{"molecule": "COC(=O)[C@@H]1Cc2ncn(Cc3ccccc3)c2CN1S(=O)(=O)c1cccs1", "activity, negative = inhibition": "inactive: -15.2% [at 57.5 µM]"}
{"molecule": "CCCc1ncncc1C(=O)N1CCCC2(CC1)CNC(=O)O2", "note": "(centres undefined)", "activity, negative = inhibition": "inactive: 1.43%"}
{"molecule": "CC1=C[C@@H](CC#N)[C@H](C(C)C)C[C@H]1CC(=O)NC1CCCCC1", "activity, negative = inhibition": "inactive: 3.1% [at 57.5 µM]"}
{"molecule": "CCn1cnnc1CC1CCN(C(=O)NC)C1", "note": "(centres undefined)", "activity, negative = inhibition": "inactive: 9.39%"}
{"molecule": "O=C1OC[C@@H]2CCN(Cc3ccc(Cl)cc3)Cc3ccc(F)cc3N12", "activity, negative = inhibition": "inactive: -4.45% [at 57.5 µM]"}
{"molecule": "CC(C)NC(=O)c1ccnc(-c2nnc3ccc(Nc4ccccc4)nn23)c1", "activity, negative = inhibition": "inactive: -6.26% [at 57.5 µM]"}
{"molecule": "O=C(Cc1c[nH]c2ncc(-c3cccnc3)cc12)NCc1cccc(F)c1", "activity, negative = inhibition": "inactive: -3.27% [at 57.5 µM]"}
{"molecule": "c1ccc(Nc2cc3c(cn2)CN(Cc2ccccn2)CCN3)cc1", "activity, negative = inhibition": "inactive: 25.2% [at 57.5 µM]"}
{"molecule": "COc1ccc(CNC[C@H]2Cn3ccnc3CO2)cn1", "activity, negative = inhibition": "inactive: 2.86% [at 76.7 µM]"}
{"molecule": "CC(CN1CCCC1)CN(C)c1nc(CCN)nc2ccccc12", "note": "(centres undefined)", "activity, negative = inhibition": "inactive: -9.71%"}
{"molecule": "Cn1cc(C(=O)N2CCCC(c3nnnn3C)C2)cn1", "note": "(centres undefined)", "activity, negative = inhibition": "inactive: -3.67%"}
{"molecule": "CO[C@@H]1CO[C@H]2[C@@H]1OC[C@@H]2NS(C)(=O)=O", "activity, negative = inhibition": "inactive: -19.3% [at 76.7 µM]"}
{"molecule": "O=c1c2nc(-c3ccc(O)c(F)c3)ccc2ncn1-c1ccccc1", "activity, negative = inhibition": "inactive: -3.87% [at 57.5 µM]"}
{"molecule": "COc1ccc(Cl)cc1-c1ccc2c(c1)C(=O)N1CC[C@H](NC(=O)C3CCCC3)[C@H]1C(=O)N2", "activity, negative = inhibition": "inactive: -12.3%"}
{"molecule": "Oc1ccccc1CN1CCC(O)(c2csc(CN3CCOCC3)n2)CC1", "activity, negative = inhibition": "inactive: 1.53% [at 57.5 µM]"}
{"molecule": "CN(C)c1ccc(-c2nnc([C@H]3CCN(Cc4ccco4)C3)o2)cc1", "activity, negative = inhibition": "inactive: 19% [at 57.5 µM]"}
{"molecule": "COc1ccc(C(=O)NCc2nnc3ccc(-c4ccc(C)c(C)c4)nn23)cc1", "activity, negative = inhibition": "inactive: 5.93%"}
{"molecule": "O=C(Cc1cccc(Cl)c1)N1CCCC(c2nn(-c3ccccc3)c(=O)[nH]2)C1", "note": "(centres undefined)", "activity, negative = inhibition": "inactive: -1.37%"}
{"molecule": "CCn1cc(S(=O)(=O)N2CCCCC2c2nc(-c3ccncc3)n[nH]2)cn1", "note": "(centres undefined)", "activity, negative = inhibition": "inactive: -10.8%"}
{"molecule": "COc1ccc(C(=O)N2CC[C@@H](CC(=O)O)[C@@H](CCN3CCCCC3)C2)cc1", "activity, negative = inhibition": "inactive: 9.35% [at 57.5 µM]"}
{"molecule": "COc1cccc(-c2ccccc2NC(=O)C2CCN(Cc3cc(F)ccc3F)CC2)c1", "activity, negative = inhibition": "inactive: 5.82%"}
{"molecule": "C[C@H](O)c1c(-c2ccc(Cl)cc2)noc1C(=O)N(C)C", "activity, negative = inhibition": "inactive: -10.1% [at 57.5 µM]"}
{"molecule": "Cc1nc2c(c(=O)[nH]1)CCN(C(=O)C1(C)CCc3c(C)c(O)c(C)c(C)c3O1)C2", "note": "(centres undefined)", "activity, negative = inhibition": "inactive: -1.2%"}
{"molecule": "CC(C)c1nc2c(c(-c3ccc(O)cc3)n1)CN(C(=O)N(C)C)CC2", "activity, negative = inhibition": "inactive: -3.66%"}
{"molecule": "COc1ncccc1-c1cnc2[nH]cc(CC(=O)Nc3cccnc3)c2c1", "activity, negative = inhibition": "inactive: 0.6% [at 57.5 µM]"}
{"molecule": "CC(NCc1cn(CCC(N)=O)c2ccccc12)c1ccccc1-n1cccn1", "note": "(centres undefined)", "activity, negative = inhibition": "inactive: 0%"}
{"molecule": "COc1cc(=O)n2c(c1C(=O)Nc1ccc(F)cc1F)CCCC2", "activity, negative = inhibition": "inactive: -1.93%"}
{"molecule": "CC1(C)C[C@H](NC(=O)c2ccccc2)[C@@]2(CCC(=O)NCCN3CCOCC3)CC[C@](C)(O)C[C@@H]12", "activity, negative = inhibition": "inactive: -0.368%"}
{"molecule": "CCC(C)NC(=O)CCN(CC)C(=O)c1cc(C)oc1C", "note": "(centres undefined)", "activity, negative = inhibition": "inactive: -7.59%"}
{"molecule": "CN(C)c1ccc(CC(=O)N2CC[C@@](C)(O)[C@@H](O)C2)cc1", "activity, negative = inhibition": "inactive: -1.1%"}
{"molecule": "O=C(NC[C@H]1OC[C@@H](NC2CCCCC2)[C@@H]1O)C1CCCC1", "activity, negative = inhibition": "inactive: 2.39% [at 57.5 µM]"}
